{"sequences": {"note": "Protein sequences, listed by entry. Tags and fused reporters are not part of them. Lines headed by an entry give the natural chain unless they say otherwise; changes in a name come on top.", "UniProt P18054": "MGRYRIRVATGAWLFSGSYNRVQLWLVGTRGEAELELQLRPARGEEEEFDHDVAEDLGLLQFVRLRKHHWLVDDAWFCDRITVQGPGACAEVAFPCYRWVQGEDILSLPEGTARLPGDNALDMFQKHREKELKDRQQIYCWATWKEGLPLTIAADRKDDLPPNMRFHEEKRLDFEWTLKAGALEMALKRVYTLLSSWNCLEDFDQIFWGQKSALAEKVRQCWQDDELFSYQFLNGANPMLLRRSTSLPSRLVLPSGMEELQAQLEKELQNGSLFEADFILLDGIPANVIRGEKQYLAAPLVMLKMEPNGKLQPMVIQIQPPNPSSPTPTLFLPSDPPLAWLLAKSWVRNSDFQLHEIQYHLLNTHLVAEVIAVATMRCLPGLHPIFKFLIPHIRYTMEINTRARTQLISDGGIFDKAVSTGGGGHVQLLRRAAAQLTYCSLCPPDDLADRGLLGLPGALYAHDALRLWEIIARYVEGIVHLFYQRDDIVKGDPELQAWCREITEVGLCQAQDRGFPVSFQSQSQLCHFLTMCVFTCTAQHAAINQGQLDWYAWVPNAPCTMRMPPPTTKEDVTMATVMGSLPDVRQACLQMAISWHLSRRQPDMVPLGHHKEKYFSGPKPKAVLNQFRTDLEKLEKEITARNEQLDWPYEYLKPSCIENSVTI"}, "source": "PubChem BioAssay AID1671190", "about": "(National Center for Advancing Translational Sciences (NCATS), 2021)", "note": "About 6,100 (1.1%) of roughly 580,000 compounds were called active. Inconclusive results, whose numbers are uncertain, are shown with a selection of clear calls. Calls come from the whole dose curve; as a rule, active = well fitted inhibition curve with a large enough effect; inconclusive = small, poorly fitted or top-dose-only effect, or another doubt; inactive = no such curve, though single readings can be large or run the other way. Potencies beside an inconclusive call are fits to weak or partial responses and may not hold up. % is set by controls: 0 for no effect and ±100 for the full control effect; potency is the fitted concentration of half-maximal effect."}
{"target": "Polyunsaturated fatty acid lipoxygenase ALOX12 (Homo sapiens) (UniProt P18054)", "test": "Primary qHTS assay for inhibitors of human arachidonate 12S-lipoxygenase (ALOX12): Round 2", "settings": "purified 12hLO, xylenol orange hydroperoxide absorbance; activity change, negative = inhibition: at 108 µM (top of the series) unless noted", "procedure,_shortened": "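Purified human 12hLO (150 nM final) in 25 mM Hepes, 0.01% Triton X-100, pH 7.0 was preincubated 15 min at room temperature with compound. Then 40 uM arachidonic acid was added, 30 min. Hydroperoxide was read by Fe-XO absorbance ratio 573/405 nm.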"}
{"smiles": "Oc1ccc(CN2CCCCC2)nc1-c1ccccc1", "activity change, negative = inhibition": "inactive: 0.588%"}
{"smiles": "Cc1cc(C)nc(NC(=O)c2cc(-c3ccc(C)s3)nc3ccccc23)c1", "Potency": "inconclusive: 56.2 µM [inhibitor, partial curve, poor fit]"}
{"smiles": "COc1cc2nc(N3CCCC(O)C3)c(CNCc3ccccc3C(F)(F)F)cc2c(OC)c1OC", "note": "(stereo unspecified)", "Potency": "inconclusive: 28.2 µM [inhibitor, partial curve, poor fit]"}
{"smiles": "CCCCn1c(N)c(N(CC(C)C)C(=O)c2ccc(-c3ccc([N+](=O)[O-])cc3)o2)c(=O)[nH]c1=O", "Potency": "inconclusive: 89.1 µM [inhibitor, partial curve, poor fit]"}
{"smiles": "CCCC(=O)N1Cc2ccccc2CC2(CCCN(Cc3cccnc3)C2)C1", "note": "(stereo unspecified)", "Potency": "inconclusive: 79.4 µM [inhibitor, single point]"}
{"smiles": "COc1cccc(-c2noc(CC3CCN(C(=O)c4ccc(OC)cc4C)CC3)n2)c1", "Potency": "inconclusive: 44.7 µM [inhibitor, single point]"}
{"smiles": "CCN(C(=O)c1cn(C)c(=O)c2ccccc12)c1cccc(C)c1", "Potency": "inconclusive: 100 µM [inhibitor, partial curve, poor fit]"}
{"smiles": "CCCCCCCCc1nc(=S)[nH][nH]1", "Potency": "inconclusive: 12.6 µM [inhibitor, partial curve, poor fit]"}
{"smiles": "CC(=O)N1N=C(c2ccsc2)CC1c1ccc2nccnc2c1", "note": "(stereo unspecified)", "Potency": "inconclusive: 11.2 µM [inhibitor, full curve, poor fit]"}
{"smiles": "O=C(COC(=O)c1ccccc1)NCC1CCCO1", "note": "(stereo unspecified)", "activity change, negative = inhibition": "inactive: 281%"}
{"smiles": "Cc1cccc(NC(=O)c2ccc3nc(C)c(C)nc3c2)n1", "activity change, negative = inhibition": "inactive: -6.39%"}
{"smiles": "CC(=O)Nc1ccc(OCC(=O)c2cc(C)ccc2C)cc1", "Potency": "inconclusive: 35.5 µM [inhibitor, single point]"}
{"smiles": "COc1ccc(NC(=O)Cn2c(N3CCc4ccccc4C3)nc(C)cc2=O)cc1OC", "Potency": "inconclusive: 28.2 µM [inhibitor, single point]"}
{"smiles": "CC(C)C[C@H]1COc2cccc(N3CCC[C@@H]3CO)c2S(=O)(=O)N1", "activity change, negative = inhibition": "inactive: 6.73%"}
{"smiles": "CCCNC(=O)N[C@@H]1C[C@H](Cn2cc(-c3cccnc3)nn2)[C@@H](O)[C@H]1O", "Potency": "active: 14.1 µM"}
{"smiles": "CN(C)CCN(C(=O)c1ccc2ccccc2c1)c1nc2c(F)cc(F)cc2s1", "Potency": "inconclusive: 89.1 µM [inhibitor, partial curve, poor fit]"}
{"smiles": "COc1ccc(C2(C(=O)N3CCC4(CC3)NCCc3c4[nH]c4ccccc34)CC2)cc1", "Potency": "inconclusive: 17.8 µM [inhibitor, partial curve]"}
{"smiles": "O=C(CCC(=O)N1CCN(c2ccc(F)cc2)CC1)c1ccc(Cl)cc1", "Potency": "inconclusive: 50.1 µM [inhibitor, partial curve, poor fit]"}
{"smiles": "CCCNCc1ccc(-c2cccc(Cl)c2)o1", "Potency": "inconclusive: 141 µM [inhibitor, single point]"}
{"smiles": "COC(=O)c1c(NC(=O)/C=C/c2ccc(OC)cc2)sc2c1CCC2", "Potency": "inconclusive: 112 µM [inhibitor, partial curve, poor fit]"}
{"smiles": "CCc1cccc2c(-c3csc(=NC)n3C)c[nH]c12", "Potency": "inconclusive: 50.1 µM [inhibitor, partial curve, poor fit]"}
{"smiles": "O=C1CC(c2ccccc2)N(S(=O)(=O)c2ccccc2)CCCCCN1", "note": "(stereo unspecified)", "Potency": "inconclusive: 89.1 µM [inhibitor, single point]"}
{"smiles": "CCCc1c(C(=O)OCC)sc(N)c1C#N", "activity change, negative = inhibition": "inactive: -6.16%"}
{"smiles": "CCn1c(C)[n+](CC)c2ccc(S(=O)(=O)N(C)C)cc21", "Potency": "inconclusive: 2.51 µM [inhibitor, full curve, poor fit]"}
{"smiles": "CC1CCN(S(=O)(=O)c2cccc(S(=O)(=O)N3CCOCC3)c2)CC1", "activity change, negative = inhibition": "inactive: -22.4%"}
{"smiles": "COc1ccc(CNC(=O)CSc2ncc3c(n2)-c2cc(Cl)ccc2N(C)S3(=O)=O)cc1", "Potency": "inconclusive: 141 µM [inhibitor, single point]"}
{"smiles": "CN(C)C[C@@H]1CN(Cc2ccccn2)C[C@H]1NC(=O)c1ccc(Cl)s1", "activity change, negative = inhibition": "inactive: 13.4%"}
{"smiles": "Cc1cc(-c2nc3ccncc3[nH]2)c(C)o1", "Potency": "inactive"}
{"smiles": "Cc1nn(CC(=O)Nc2ccc3c(c2)OCCO3)c(C)c1[N+](=O)[O-]", "activity change, negative = inhibition": "inactive: 9.18%"}
{"smiles": "CCC(CC)c1nnc(NC(=O)Cc2cccs2)s1", "Potency": "inconclusive: 4.47 µM [inhibitor, full curve, poor fit]"}
{"smiles": "c1ccc(CN2CCN(C(c3ccccc3)c3ccccc3)CC2)cc1", "Potency": "inconclusive: 0.631 µM [inhibitor, full curve]"}
{"smiles": "COc1cc(/C=C(/C#N)C(=O)c2c(Cl)cccc2Cl)cc(OC)c1O", "Potency": "inconclusive: 39.8 µM [inhibitor, partial curve, poor fit]"}
{"smiles": "Cc1ccc(NC(=O)Nc2cccs2)c(C)c1", "activity change, negative = inhibition": "inactive: 0.887%"}
{"smiles": "CCN1C(=O)c2ccccc2Sc2ccc(NC(=O)c3cccc(C)c3)cc21", "Potency": "inconclusive: 2.82 µM [inhibitor, full curve]"}
{"smiles": "O=C(CSc1cccc2cccc(Cl)c12)OCC(=O)N1CCN(C(=O)c2ccco2)CC1", "Potency": "inconclusive: 112 µM [inhibitor, partial curve, poor fit]"}
{"smiles": "CCCCCn1nc(C(=O)OC(C)C(=O)Nc2ccc(NC(C)=O)cc2)c2ccccc2c1=O", "note": "(stereo unspecified)", "Potency": "inconclusive: 44.7 µM [inhibitor, partial curve, poor fit]"}
{"smiles": "CCOC(=O)c1c(NC(=O)c2ccn(CC)n2)sc2c1CCCC2", "activity change, negative = inhibition": "inactive: -2.55%"}
{"smiles": "CCn1nccc1C(=O)N1CCC2(CC1)NC(=O)N(c1cccc(F)c1)N2", "Potency": "active: 3.98 µM"}
{"smiles": "CCCOc1ccc(C(=O)Nc2ccccc2[N+](=O)[O-])cc1", "Potency": "inconclusive: 126 µM [inhibitor, single point]"}
{"smiles": "COC(=O)[C@H](CC(C)C)N(Cc1ccccc1)S(=O)(=O)N(Cc1ccc(OC)cc1)[C@@H](CC(C)C)C(=O)OC", "activity change, negative = inhibition": "inactive: 0.117%"}
{"smiles": "O=C1c2oc3ccccc3c(=O)c2C(c2cccnc2)N1CCCN1CCOCC1", "note": "(stereo unspecified)", "Potency": "inconclusive: 44.7 µM [inhibitor, single point]"}
{"smiles": "CCOC(=O)c1cc(OC(=O)c2ccccc2OC)n(-c2ccccc2)n1", "Potency": "inconclusive: 44.7 µM [inhibitor, partial curve, poor fit]"}
{"smiles": "O=C(c1cccc2ccccc12)N1CCN(CC2CC=CCC2)CC1", "note": "(stereo unspecified)", "Potency": "inconclusive: 0.501 µM [inhibitor, full curve, poor fit]"}
{"smiles": "O=C(O)c1ccc(CSc2ccc(Cl)cc2)cc1", "activity change, negative = inhibition": "inactive: -16.2%"}
{"smiles": "CCN(CC(=O)N1c2ccccc2SCC1c1ccccc1)Cc1nc2ccccc2c(=O)[nH]1", "note": "(stereo unspecified)", "activity change, negative = inhibition": "inactive: 5.1%"}
{"smiles": "O=C(CCNC(=O)c1ccccc1Cl)Nc1nc(-c2ccc(F)cc2)cs1", "activity change, negative = inhibition": "inactive: -29.1%"}
{"smiles": "Cc1ccc(NC(=O)CCN2C(=O)NC3(CCCC3)C2=O)cc1", "Potency": "inconclusive: 141 µM [inhibitor, partial curve, poor fit]"}
{"smiles": "CCn1cc(S(=O)(=O)Nc2cc(F)ccc2C)cn1", "Potency": "inconclusive: 112 µM [inhibitor, partial curve, poor fit]"}
{"smiles": "CCn1nc(C)cc1-c1nnc(Sc2ncc([N+](=O)[O-])s2)n1C", "Potency": "inconclusive: 28.2 µM [inhibitor, partial curve, poor fit]"}
{"smiles": "CCC1=C(C(=O)OC)C(c2cccc(F)c2)N2C(CC(=O)N3CCC(C)CC3)=CSC2=N1", "note": "(stereo unspecified)", "activity change, negative = inhibition": "inactive: 36.1%"}
{"smiles": "COc1ccc(CC(=O)NC2CCN(c3cc(-c4ccc(Cl)cc4)[nH]n3)C2)cc1OC", "note": "(stereo unspecified)", "activity change, negative = inhibition": "inactive: -18.3%"}
{"smiles": "COc1ccc(-c2nc3cnc(N(C)C)nc3n(Cc3ccc(F)cc3)c2=O)cc1", "Potency": "inconclusive: 22.4 µM [inhibitor, single point]"}
{"smiles": "O[C@@H]1[C@@H](Cn2cc(C3CC3)nn2)C[C@@H](NCc2nccs2)[C@@H]1O", "Potency": "inconclusive: 17.8 µM [inhibitor, partial curve, poor fit]"}
{"smiles": "COC(=O)C1=C(C)N(Cc2cccc(C(F)(F)F)c2)C(=NCc2cc(OC)c(OC)c(OC)c2)NC1c1ccccc1", "note": "(stereo unspecified)", "Potency": "inconclusive: 79.4 µM [inhibitor, partial curve, poor fit]"}
{"smiles": "CN(CC1CCOCC1)C(=O)CC1C(=O)NCCN1Cc1ccc(-c2ccccc2)cc1", "note": "(stereo unspecified)", "Potency": "inconclusive: 70.8 µM [inhibitor, partial curve, poor fit]"}
{"smiles": "Cc1ccc(O)c(-c2cc(-c3ccc(F)cc3)no2)c1", "activity change, negative = inhibition": "inactive: 2.97%"}
{"smiles": "NC(=O)c1ccc(C(=O)N/N=C/c2cccc(Oc3ccccc3)c2)cc1", "Potency": "inconclusive: 79.4 µM [inhibitor, single point]"}
{"smiles": "CCCOc1ccc(C(F)(F)F)cc1N", "Potency": "inconclusive: 14.1 µM [inhibitor, full curve, poor fit]"}
{"smiles": "O=[N+]([O-])c1ccc(S(=O)(=O)Nc2ncccn2)cc1", "activity change, negative = inhibition": "inactive: -26.7%"}
{"smiles": "Cn1cnnc1SCC(=O)Nc1sc2c(c1C(N)=O)CCC2", "Potency": "inconclusive: 17.8 µM [inhibitor, full curve]"}
{"smiles": "Cc1cc(C(=O)NC2CC2)c2c(C3CCNCC3)noc2n1", "Potency": "inconclusive: 50.1 µM [inhibitor, partial curve, poor fit]"}
{"smiles": "Cc1ccccc1-c1nc(NC2CC2)c2ccccc2n1", "Potency": "inconclusive: 20 µM [inhibitor, partial curve, poor fit]"}
{"smiles": "O=C(Nc1ccc(F)c(Cl)c1)C1CCN(S(=O)(=O)c2ccc3c(c2)CCCN3C(=O)C2CCC2)CC1", "activity change, negative = inhibition": "inconclusive: -30.2% [inhibitor]"}
{"smiles": "O=C(Oc1ccccc1)N1CCC2(CC1)CN(c1ccncc1)C2", "Potency": "inconclusive: 31.6 µM [inhibitor, single point]"}
{"smiles": "COc1ccccc1N1CCN(Cc2ccc(O)c3ncccc23)CC1", "Potency": "inconclusive: 11.2 µM [inhibitor, full curve]"}
{"smiles": "Cc1ccc(N2CC(NC(=O)c3ccccc3Br)CC2=O)cc1", "note": "(stereo unspecified)", "Potency": "inconclusive: 56.2 µM [inhibitor, partial curve, poor fit]"}
